Test results taken from PMC7819943, “Rice protein-binding microarrays: a tool to detect cis-acting elements near promoter regions in rice”.
Some of the results follow.

Biological target: T1, OsSMF1 (Oryza sativa, UniProt Q6ZLB0 1-436)
T1 sequence: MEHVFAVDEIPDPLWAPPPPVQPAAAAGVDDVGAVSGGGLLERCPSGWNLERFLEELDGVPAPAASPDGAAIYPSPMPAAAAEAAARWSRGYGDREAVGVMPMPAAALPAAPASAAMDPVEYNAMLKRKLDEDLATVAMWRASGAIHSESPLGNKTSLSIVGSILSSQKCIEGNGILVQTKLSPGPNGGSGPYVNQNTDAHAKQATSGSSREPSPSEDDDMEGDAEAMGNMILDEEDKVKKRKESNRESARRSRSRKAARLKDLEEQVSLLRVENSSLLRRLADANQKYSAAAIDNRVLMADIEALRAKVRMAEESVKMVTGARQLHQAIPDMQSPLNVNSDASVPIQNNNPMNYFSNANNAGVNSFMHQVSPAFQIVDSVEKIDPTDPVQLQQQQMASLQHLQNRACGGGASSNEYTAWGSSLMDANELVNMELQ
Experiment: protein-binding microarray (RPBM); PBS, 2% BSA, 51.3 ng/ul salmon testes DNA, 50 uM zinc acetate, 200 nM TF, 25 C, 1 h; high values mean tight binding
Conditions: protein: recombinant; tags: N-terminal polyhistidine and DsRed monomer fusion (pET32a); chain copies: 2; label: CyDye5-dUTP incorporated in the synthesized complementary strand; 3' TTTTT single-stranded linker to array surface; dsDNA, one strand shown
In short: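 Using Ni–NTA, transcription factors fused N-terminally to polyhistidine and DsRed were purified after expression in E. coli BL21-CodonPlus. These were incubated at 200 nM with a blocked, double-stranded custom Agilent array for 1 h at 25 °C in a buffer containing 50 µM zinc acetate, and the array was washed. The binding signal is per-feature fluorescence intensity (arbitrary units) on an Axon 4000B scanner.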

Sequence	binding signal
AGATAGACAGAGGAAATACCTCGTTTCCCACGTGCACATTCGGAGTCACCTAGTGCAG	5420 fluorescence intensity (a.u.)
CGCGTGAGCAGACTCCAACCTCTCACCTTAGTCACCTAGCCGGAGTCACCTAGTGCAG	3340 fluorescence intensity (a.u.)
TCCACTAAACTGGTCCGTCACCCTCGCTGCCCGCTCTGAGCGGAGTCACCTAGTGCAG	27600 fluorescence intensity (a.u.)
GCAAGCTCGAACTGCCCTAGTCTAAGAGCAAGGATAATAACGGAGTCACCTAGTGCAG	25800 fluorescence intensity (a.u.)
GGTCCACCCGAATCGGAGTCAGCCAGCCAAGCCACCTAATCGGAGTCACCTAGTGCAG	4780 fluorescence intensity (a.u.)
CGAAAATGGTTTGCTTCGTAGGATCGTTATTTTGCTTGTTCGGAGTCACCTAGTGCAG	3770 fluorescence intensity (a.u.)
GCATTCTGAAGATCAACGTGTCTTTGAGTTTGAGAAAACACGGAGTCACCTAGTGCAG	3500 fluorescence intensity (a.u.)
ATTTGTTCAGTGTACGTGATTCTCATCGCTGACAAACGCTCGGAGTCACCTAGTGCAG	10200 fluorescence intensity (a.u.)
AAGCCAAAATTTGAATTTTCAAACTTAATTTTGATATTGACGGAGTCACCTAGTGCAG	26200 fluorescence intensity (a.u.)
CCTGGGCCTCCTCAACGTCACCAGCGACGGCGACACGGGCCGGAGTCACCTAGTGCAG	3230 fluorescence intensity (a.u.)
TCTGGACCACATAAACGAGAGAGAGAGAGAAGTCCAAGCCCGGAGTCACCTAGTGCAG	47900 fluorescence intensity (a.u.)
AAGCCATTGGAGAGGAAGGACATAGCTGAGATCGCGGTGGCGGAGTCACCTAGTGCAG	4180 fluorescence intensity (a.u.)
ACATCACCACCCACCTCACCCTGCCGCTCCCGAGCGCGATCGGAGTCACCTAGTGCAG	4000 fluorescence intensity (a.u.)
CAGCACGTGCGTGGTAATCCCGTGTCGGCCCATTATACAACGGAGTCACCTAGTGCAG	3200 fluorescence intensity (a.u.)
CGGCTTACGGCCGCCTGTCGGGGAAGATGACTCCCTCTTCCGGAGTCACCTAGTGCAG	5050 fluorescence intensity (a.u.)
GGCAGTCGTGACGGAGACGATGGCCATGTCGTCGAACGAACGGAGTCACCTAGTGCAG	3160 fluorescence intensity (a.u.)
CGTCAGTCATCGAGTCCACTTCATCATCTAGTCAGAGTGACGGAGTCACCTAGTGCAG	3970 fluorescence intensity (a.u.)
AGGAGAGGGAAGAGAGAGGGCGCTGACGTTGCATCCTGACCGGAGTCACCTAGTGCAG	12400 fluorescence intensity (a.u.)
GATGCGATGCGCCGGCCCACGTCGGCCCATCATCTGACGCCGGAGTCACCTAGTGCAG	5360 fluorescence intensity (a.u.)
CGAGTCGAGTCCCGGTTCGAGTCAGACGCGGGCCGCCTCCCGGAGTCACCTAGTGCAG	3580 fluorescence intensity (a.u.)
GTACAGTACATGCGCGCGTGCGTGTGCATCATCAGCGATGCGGAGTCACCTAGTGCAG	7570 fluorescence intensity (a.u.)

Sequence	binding signal
AAGTACCTTACCATCCCAACCACCCTATTCTCTCTCTAGCCGGAGTCACCTAGTGCAG	3550 fluorescence intensity (a.u.)
CCACGAGATGATGATGGCAAGTTCAAACGGAGCTGGAGGCCGGAGTCACCTAGTGCAG	3200 fluorescence intensity (a.u.)
CCGGCTCATCCGAGAACGCGACGGCCTTGTCACCAGTAATCGGAGTCACCTAGTGCAG	5050 fluorescence intensity (a.u.)
CCGCGCTGGTGCCACCACTACATGATGCAGTTCACGCACACGGAGTCACCTAGTGCAG	3910 fluorescence intensity (a.u.)
CTTGGGCTACTCAACCTTGTCAAGCTCCAAGTCACAACCGCGGAGTCACCTAGTGCAG	3340 fluorescence intensity (a.u.)
TCGCAACTCCACCTTCTTCCCACGCTCTATTGGGTTTAAACGGAGTCACCTAGTGCAG	3720 fluorescence intensity (a.u.)
CAACGTGACTATTATTTAGGGCAATTACAAATTTACCACTCGGAGTCACCTAGTGCAG	4320 fluorescence intensity (a.u.)
TGCGCGTGCTGCGTGTCGTACAGCGCATATATAATACTCCCGGAGTCACCTAGTGCAG	38300 fluorescence intensity (a.u.)
CGCTCCAGTCGACTCACCATCGATCCATCTGACGGTTAGTCGGAGTCACCTAGTGCAG	4270 fluorescence intensity (a.u.)
AGCACACGTTTTGACTATGCTATCAAGGATGATGTGGCAACGGAGTCACCTAGTGCAG	9450 fluorescence intensity (a.u.)
TGTTTGGTATTTACTAGACGTCAGATTTACGTCAACAACACGGAGTCACCTAGTGCAG	4710 fluorescence intensity (a.u.)
CCCGGCGCCGGCGGCCGTGCTGATGCGATGCGTGCATGTCCGGAGTCACCTAGTGCAG	4360 fluorescence intensity (a.u.)
CCGGAGCCGGAAGCTGACGCGTGGCACGTGGTCGGCGAGGCGGAGTCACCTAGTGCAG	8390 fluorescence intensity (a.u.)
TTGGTTGAATGATAACTTAGCTCACTGAGTGACAGGTTTTCGGAGTCACCTAGTGCAG	3310 fluorescence intensity (a.u.)
GCCCTTCAATTTCATGCCATGCAGGCGATGAGTTGGCAAACGGAGTCACCTAGTGCAG	7570 fluorescence intensity (a.u.)
CAATCTCCTCCGGCGTTGTCGACGTCGGCCTTGAGCCCGCCGGAGTCACCTAGTGCAG	3670 fluorescence intensity (a.u.)
GTGCACGCACGCTGACCTGGCGGCATTCCGGCCCAGCCCACGGAGTCACCTAGTGCAG	11900 fluorescence intensity (a.u.)
TCGACGCCGACTTCCCCTCCGACGACGATGACGACGACGACGGAGTCACCTAGTGCAG	4230 fluorescence intensity (a.u.)
TTGAGGTCACATGATTTGCCTCAGGCCACACGTCACTCGACGGAGTCACCTAGTGCAG	9070 fluorescence intensity (a.u.)
CCATCCGATCGCCATCATCTCATCATCAGTTCATCACCAACGGAGTCACCTAGTGCAG	3570 fluorescence intensity (a.u.)
GGCAGCAGGTGGAGGTGACGCGGCGGCAGGACTACGAGCGCGGAGTCACCTAGTGCAG	3140 fluorescence intensity (a.u.)

Sequence	binding signal
TGGGACCCATTGACATGTGGGGCCCACATGTCATCCTCTCCGGAGTCACCTAGTGCAG	3200 fluorescence intensity (a.u.)
ATCAACGCTACGTATATGCGCGCCGTGTTACGTATCTCTTCGGAGTCACCTAGTGCAG	3780 fluorescence intensity (a.u.)
GCCTCCACCACCACGCCGCGTCACCGGCGGCGGAGCGGCGCGGAGTCACCTAGTGCAG	5770 fluorescence intensity (a.u.)
CTTTGGCTTTTAGCCATAGACTTTGATCCATGAGTTAGAACGGAGTCACCTAGTGCAG	40900 fluorescence intensity (a.u.)
CCGTTGCCGCGCCGTGGACCGACAGCCACTGACGTCACCCCGGAGTCACCTAGTGCAG	18600 fluorescence intensity (a.u.)
GGAGGATGGTTTCGCTGATGTGGCGACTACGTGGTGGTGTCGGAGTCACCTAGTGCAG	19900 fluorescence intensity (a.u.)
ACGGCACACCGCGTGCCTCACGAGTGACGTGTTCCGTCGCCGGAGTCACCTAGTGCAG	4900 fluorescence intensity (a.u.)
AAATAAACTAAGCACATGATGCATAACAATCACAATAGAACGGAGTCACCTAGTGCAG	3340 fluorescence intensity (a.u.)
CAGCAGCAGATGCAAACGCAGCCTTTGTACTTTCGGGAATCGGAGTCACCTAGTGCAG	3690 fluorescence intensity (a.u.)
TTGAGCTTTGCTGATTCAGCAGTGCTCATCTACGTGGACACGGAGTCACCTAGTGCAG	16000 fluorescence intensity (a.u.)
TAATTCAGATTCGTGGTATTAAAATGTTTCGCATTCCATACGGAGTCACCTAGTGCAG	3370 fluorescence intensity (a.u.)
GCTGTGATCGATGATATACTACGGTACACAGCCGGTAGTACGGAGTCACCTAGTGCAG	3620 fluorescence intensity (a.u.)
GATTAATACGACTACTGTCATACGTACTGTACATGTCATGCGGAGTCACCTAGTGCAG	3720 fluorescence intensity (a.u.)
GTTGAGGGATGACAGGTGGACTTATTTCCTATTTCATGTGCGGAGTCACCTAGTGCAG	6590 fluorescence intensity (a.u.)
GTATTATGGATTTACGGGTGCCAACAGTTTTGATGGTAAGCGGAGTCACCTAGTGCAG	3530 fluorescence intensity (a.u.)
GGTTTTCCTCGACAAGTACCCTGCAGGCTGCAGCATGCCACGGAGTCACCTAGTGCAG	3900 fluorescence intensity (a.u.)
CCCAAGGAGGATGAGGTGGAGGTGGGAGTGCGCATTGAGGCGGAGTCACCTAGTGCAG	4880 fluorescence intensity (a.u.)
AGATGCTAACCAATGACGTGGTGATTAACCCGTACGTGATCGGAGTCACCTAGTGCAG	15300 fluorescence intensity (a.u.)
TCATTAATTAATTAATTACAGTGGTAGATGATGATGTAGTCGGAGTCACCTAGTGCAG	3250 fluorescence intensity (a.u.)
GATGGGATTGGGACAAAGATATGAGTGGAGGGTTGAGATGCGGAGTCACCTAGTGCAG	3390 fluorescence intensity (a.u.)
CTATTGTACATGTACGGGTGCACTGACAGCACGTGAGACGCGGAGTCACCTAGTGCAG	3820 fluorescence intensity (a.u.)

Part of the list above, as comma-separated lines.
Sequence,binding signal
ATCAACGCTACGTATATGCGCGCCGTGTTACGTATCTCTTCGGAGTCACCTAGTGCAG,3780 fluorescence intensity (a.u.)
GCCTCCACCACCACGCCGCGTCACCGGCGGCGGAGCGGCGCGGAGTCACCTAGTGCAG,5770 fluorescence intensity (a.u.)
CTTTGGCTTTTAGCCATAGACTTTGATCCATGAGTTAGAACGGAGTCACCTAGTGCAG,40900 fluorescence intensity (a.u.)
CCGTTGCCGCGCCGTGGACCGACAGCCACTGACGTCACCCCGGAGTCACCTAGTGCAG,18600 fluorescence intensity (a.u.)
CAGCAGCAGATGCAAACGCAGCCTTTGTACTTTCGGGAATCGGAGTCACCTAGTGCAG,3690 fluorescence intensity (a.u.)
TTGAGCTTTGCTGATTCAGCAGTGCTCATCTACGTGGACACGGAGTCACCTAGTGCAG,16000 fluorescence intensity (a.u.)
GATTAATACGACTACTGTCATACGTACTGTACATGTCATGCGGAGTCACCTAGTGCAG,3720 fluorescence intensity (a.u.)
TCATTAATTAATTAATTACAGTGGTAGATGATGATGTAGTCGGAGTCACCTAGTGCAG,3250 fluorescence intensity (a.u.)
GATGGGATTGGGACAAAGATATGAGTGGAGGGTTGAGATGCGGAGTCACCTAGTGCAG,3390 fluorescence intensity (a.u.)

Carrying on:

Sequence	binding signal
AGAGGAGGATGACGTGGATACGCTGACATGTGGGGTCCACCGGAGTCACCTAGTGCAG	13100 fluorescence intensity (a.u.)
AGACCCAAAACCCGCGCCACGTACGCGCGAGCCCTTCTCCCGGAGTCACCTAGTGCAG	13300 fluorescence intensity (a.u.)
CGTTCGCTTCTCTTCTCCCCGCTCCGCTAGTCATCAACCACGGAGTCACCTAGTGCAG	3240 fluorescence intensity (a.u.)
TTGGTATTTTACGTGTAGGGTTTGTGATGTGAAGGTCCGACGGAGTCACCTAGTGCAG	3330 fluorescence intensity (a.u.)
CGCACGTACGTGCTAGCAATTTAGCTGGCGCCCGCGTCAGCGGAGTCACCTAGTGCAG	4180 fluorescence intensity (a.u.)
AGAGAAAGATTAGAGCCACATACATTTGGGAGGAGTTAATCGGAGTCACCTAGTGCAG	4540 fluorescence intensity (a.u.)
GAATAGCACTTACTAGAGCTGGTGAGCTCTCTTTAATGCACGGAGTCACCTAGTGCAG	29300 fluorescence intensity (a.u.)
TGAAGCTGACATGATAACACTATCGTAGGTCCAGGTTGGCCGGAGTCACCTAGTGCAG	3750 fluorescence intensity (a.u.)
ATCTCCAGGTTAGTAGATAGCTTTGTTCTCTCTCTTCATTCGGAGTCACCTAGTGCAG	36400 fluorescence intensity (a.u.)
AGCCAGGGGAAGGGTCAGATGACAATGCAGTTTCTGCTGCCGGAGTCACCTAGTGCAG	20100 fluorescence intensity (a.u.)
GGCAGGCAGGCAGCAGGCCACGCTCCCCTCGCAGCCACCACGGAGTCACCTAGTGCAG	3810 fluorescence intensity (a.u.)
CACGAAGATCTCCTCCTCAGCCAACTCACCGGTGACGCTGCGGAGTCACCTAGTGCAG	6320 fluorescence intensity (a.u.)
TGTAGTGTTACAGTATGCCACGTCATCATGCTACGCTATTCGGAGTCACCTAGTGCAG	43900 fluorescence intensity (a.u.)
TGGGCCAAATCCCACGTGTCAACCTGTTCTGATCCCACACCGGAGTCACCTAGTGCAG	19600 fluorescence intensity (a.u.)
GCGCCACCGATCGAATTCACGACTGAATTAGTTTCTTCTTCGGAGTCACCTAGTGCAG	4070 fluorescence intensity (a.u.)
GGTCGCGGGACCGACGCGTCAGATGCCTCGTCCGGCCGTGCGGAGTCACCTAGTGCAG	5350 fluorescence intensity (a.u.)
TTATATTTGTTGCAAAACACGTATGTATAATTTATCTAGTCGGAGTCACCTAGTGCAG	4620 fluorescence intensity (a.u.)
GTCCTACACGCTTGAAGGCGGACTATGCGTCTATGCCCTACGGAGTCACCTAGTGCAG	14600 fluorescence intensity (a.u.)
CAACCACCACGCAAACAAACACGAAGTTCGCGCCGTCGACCGGAGTCACCTAGTGCAG	3650 fluorescence intensity (a.u.)
CGCACCTGCGTACGATCGACGTGTAGTCGTTATCTGTCTCCGGAGTCACCTAGTGCAG	5310 fluorescence intensity (a.u.)
TAGATCTTGGGTGGATGTGGCTAGAGGGATGGTGGACGAACGGAGTCACCTAGTGCAG	3200 fluorescence intensity (a.u.)
